This test concerns the target mouse CD24 on mouse cancer cell lines (4T1, LLC, B16F10) (mouse) (UniProt P24807). The test is described as follows: flow cytometry on fixed mouse cells (4T1, LLC, B16F10), FITC anti-human IgG. A general note: Flow cytometry measures light scatter and fluorescence of single cells or particles in a stream.

Protein sequences, listed by entry. Tags and fused reporters are not part of them. Residues count along the entry.
UniProt P24807, residues 27-53: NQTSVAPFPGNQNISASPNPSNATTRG

These are yes or no findings as the source states them, for the method shown. Some results given as binding are weak or reduced against the parent protein; the word gives no strength.

B1: anti-CD24 antibody #1 (Fc fusion)
VH: MAQVQLLESGGGVVQPGRSLRLSCAASGFTFSSYGMHWVRQAPGKGLEWVSGMSGDGLATYYADSVKGRFTISRDNSKNTLYLQMNSLRAEDTAVYYCARDSSSWYGGYYYYYGMDVWGQGTTVTVSSGS
VL: DIQMTQSPSSVSASVGDRVTITCRASQGISSWLAWYQQKPGKAPKLLIYAASSLQSGVPPRFSGSGSGTDFTLTISSLQPEDFATYYCQQSYSTPLTFGGGTKVEIKR
notes: also called Candidate 1; αCD24 antibody (#1)
Consider B1, for which the binding entry was “binds”.
